PubChem BioAssay AID743121 | NCATS, 2013

Aim: 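Knock-downs that sensitise breast cancer cells to camptothecin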 (primary screen)
Cells: MDA-MB-231 cells, a human breast cancer line
Knock-down reagent: single siRNA against human genes, 20 nM siRNA (0.8 pmol per well)
Timing: 120 h (drug added 48 h after transfection, read 72 h later)
Treatment: camptothecin 20 nM (about EC30) for 72 h; vehicle 0.1% DMSO in parallel plates
Measured: 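Cell viability by ATP luminescence (CellTiter-Glo) as % of non-targeting siRNA wells, and the log2 ratio of viability without drug over viability with camptothecin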
Scale: log2 vehicle/camptothecin viability: higher = stronger sensitisation to camptothecin; viability with camptothecin and viability without drug: higher = more viable cells
Active means: 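Each gene scored by redundant siRNA activity (RSA) over its individual siRNA ratios; a gene is called active at p < 0.001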
In all, the deposit lists about 26,000 reagents; shown is a part drawn at random. Of all reagents, 167 (0.63%) are marked active. 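Calls are per gene from RSA p-values that are not deposited; an individual active-marked siRNA can sensitise only weakly.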 Reagents against one gene are numbered here.

gene knocked down,reagent no.,log2 vehicle/camptothecin viability,viability with camptothecin (% of control),viability without drug (% of control),Call
TMEM86B (GeneID 255043),1,-0.349,93.4,73.3,inactive
TMEM86B (GeneID 255043),2,-0.175,33.3,29.5,inactive
TMEM86B (GeneID 255043),3,-0.106,62.7,58.3,inactive
TMEM86B (GeneID 255043),4,-0.103,109,102,inactive
CD2AP (GeneID 23607),1,-0.204,92.2,80,inactive
CD2AP (GeneID 23607),2,-0.443,115,84.9,inactive
CD2AP (GeneID 23607),3,0.1,90,96.5,inactive
CD2AP (GeneID 23607),4,-0.237,99,84,inactive
PRAG1 (GeneID 157285),1,-0.0271,81.5,80,inactive
PRAG1 (GeneID 157285),2,-0.559,50,34,inactive
PRAG1 (GeneID 157285),3,-0.124,114,105,inactive
PRAG1 (GeneID 157285),4,-0.44,114,84.3,inactive
KCNQ3 (GeneID 3786),1,0.0653,83.4,87.2,inactive
KCNQ3 (GeneID 3786),2,-0.43,91.5,67.9,inactive
KCNQ3 (GeneID 3786),3,-0.266,95.4,79.3,inactive
KCNQ3 (GeneID 3786),4,-0.327,97.7,77.9,inactive
KCNA2 (GeneID 3737),1,0.43,74.9,101,inactive
KCNA2 (GeneID 3737),2,0.236,41.9,49.4,inactive
KCNA2 (GeneID 3737),3,-0.151,97.9,88.2,inactive
KCNA2 (GeneID 3737),4,-0.469,65.2,47.1,inactive
SELENON (GeneID 57190),1,-0.0883,105,99.2,inactive
SELENON (GeneID 57190),2,0.375,64.3,83.4,inactive
SELENON (GeneID 57190),3,-0.119,85.4,78.7,inactive
SELENON (GeneID 57190),4,0.152,72.1,80.1,inactive
NLRP3 (GeneID 114548),1,-0.166,54.4,48.4,inactive
NLRP3 (GeneID 114548),2,-0.139,88.1,80,inactive
NLRP3 (GeneID 114548),3,1.53,14.1,40.6,inactive
NLRP3 (GeneID 114548),4,-0.476,97.5,70.1,inactive

A portion taken from the entries so far, as a working copy:
gene knocked down,reagent no.,log2 vehicle/camptothecin viability,viability with camptothecin (% of control),viability without drug (% of control),Call
SELENON (GeneID 57190),4,0.152,72.1,80.1,inactive
NLRP3 (GeneID 114548),1,-0.166,54.4,48.4,inactive
NLRP3 (GeneID 114548),2,-0.139,88.1,80,inactive
